Source: PMC4452637, “Identification of positron emission tomography (PET) tracer candidates by prediction of the target-bound fraction in the brain” (EJNMMI Research, 2014)

Assays:
NET = details: Yes/No: utility in vivo for reliable quantification of specific target binding; 79 (Additional file 1); cited from earlier work
D2 = test: PET imaging of specific target binding (BPND, tracer functionality); type: in vivo
Amyloid [1] = test: as above; type: in vivo; details: derived from BPND, Eq. 4; cortex
Amyloid [2] = details: Yes/No: utility in vivo for reliable quantification of specific target binding; ref Additional file 1: Table S1; cited from earlier work
SERT [3] = test: PET imaging of specific target binding (BPND, tracer functionality); type: in vivo; details: derived from BPND, Eq. 4; caudate
SERT [4] = details: Yes/No: utility in vivo for reliable quantification of specific target binding; No: data on file or ref 66, 80 (Additional file 1); cited from earlier work
GABA = details: Yes/No: utility in vivo for reliable quantification of specific target binding; No: data on file; ref Additional file 1: Table S1; cited from earlier work
5HT2a [5] = test: PET imaging of specific target binding (BPND, tracer functionality); type: in vivo; details: derived from BPND, Eq. 4; temporal cortex
5HT2a [6] = details: Yes/No: utility in vivo for reliable quantification of specific target binding; ref Additional file 1: Table S1; cited from earlier work
DAT = test: PET imaging of specific target binding (BPND, tracer functionality); type: in vivo; details: derived from BPND, Eq. 4; striatum
TSPO [7] = test: as above; type: in vivo
TSPO [8] = details: Yes/No: utility in vivo for reliable quantification of specific target binding; ref Additional file 1: Table S1; cited from earlier work
5HT1a = test: PET imaging of specific target binding (BPND, tracer functionality); type: in vivo; details: derived from BPND, Eq. 4; hippocampus
[9] = derived from BPND, Eq. 4, caudate/striatum
[10] = derived from BPND, Eq. 4, thalamus

COc1ccccc1OC(CCN[11CH3])c1ccccc1 (racemic) [[^11C]Nisoxetine]
Functioning (NET): No and No[79]

CCN1CCC[C@H]1CNC(=O)c1c(O)c(Cl)cc(Cl)c1O[11CH3] (racemic) [[^11C]Raclopride]
f tb (PET data) (D2; [9]): 0.72

[11CH3]Nc1ccc(-c2nc3ccc(O)cc3s2)cn1 [[^11C]AZD2184]
f tb (PET data) (Amyloid [1]): 0.52
Functioning (Amyloid [2]): Yes

CN([11CH3])Cc1ccccc1Sc1ccc(C#N)cc1N [[^11C]DASB]
f tb (PET data) (SERT [3]): 0.62
Functioning (SERT [4]): Yes

[11CH3]NCCCN1c2ccccc2CCc2ccccc21 [[^11C]Desipramine]
Functioning (NET): No and No[71]

[11CH3]N1C(=O)CN=C(c2ccccc2)c2cc(Cl)ccc21 [[^11C]Diazepam]
Functioning (GABA): No and No^a

CCN1CCC[C@H]1CNC(=O)c1cc(Br)cc(OC)c1O[11CH3] [[^11C]FLB457]
f tb (PET data) (D2; [10]): 0.72

CCOC(=O)c1ncn2c1CN(C)C(=O)c1cc(F)ccc1-2 [[^11C]Flumazenil]
Functioning (GABA): Yes

Cc1ccc(Sc2ccccc2CN(C)[11CH3])c(N)c1 [[^11C]MADAM]
f tb (PET data) (SERT [3]): 0.58
Functioning (SERT [4]): Yes

COc1c(O[11CH3])cccc1[C@H](O)C1CCN(CCc2ccc(F)cc2)CC1 [[^11C]MDL100907]
f tb (PET data) (5HT2a [5]): 0.57
Functioning (5HT2a [6]): Yes

[11CH3]Sc1ccc([C@H]2CN3CCC[C@H]3c3ccccc32)cc1 [[^11C]McN5652]
f tb (PET data) (SERT [3]): 0.33
Functioning (SERT [4]): Yes

[11CH3]Oc1ccccc1O[C@@H](c1ccccc1)[C@H]1CNCCO1 [[^11C]MeNER]
Functioning (NET): No and No[75]

Cc1ccc(C2CC3CCC(C2C(=O)O[11CH3])N3CC=CI)cc1 (centres unmarked) [[^11C]PE2I]
f tb (PET data) (DAT): 0.89

[11CH3]Nc1ccc(-c2nc3ccc(O)cc3s2)cc1 [[^11C]PIB]
f tb (PET data) (Amyloid [1]): 0.46
Functioning (Amyloid [2]): Yes

CCC(C)N(C)C(=O)c1cc2ccccc2c(-c2ccccc2Cl)n1 (centres unmarked) [[^11C]PK11195]
f tb (PET data) (TSPO [7]; in vivo): 0.15
Functioning (TSPO [8]): Yes

CCN1CCC[C@H]1CNC(=O)c1c(OC)ccc(Br)c1OC [[^11C]Remoxipride]
f tb (PET data) (D2; non-functioning tracer: arbitrary low value assigned, not derived from PET data): 0.09

COc1ccccc1N1CCN(CCN(c2ccccn2)[11C](=O)C2CCCCC2)CC1 [[^11C]WAY100635]
f tb (PET data) (5HT1a): 0.88

CNc1ccc(-c2cc3cc(O)ccc3o2)c([18F])n1 [[^18 F]AZD4694]
f tb (PET data) (Amyloid [1]): 0.55
Functioning (Amyloid [2]): Yes

O=C(c1ccc([18F])cc1)C1CCN(CCn2c(=S)[nH]c3ccccc3c2=O)CC1 [[^18 F]Altanserin]
f tb (PET data) (5HT2a [5]): 0.51
Functioning (5HT2a [6]): Yes

Cc1ccc([C@H]2C[C@@H]3CC[C@H]([C@H]2C(=O)OCC[18F])N3C/C=C/I)cc1 [[^18 F]FE-PE2I]
f tb (PET data) (DAT): 0.80

CC(=O)N(Cc1ccccc1OCC[18F])c1cnccc1Oc1ccccc1 [[^18 F]FEPPA]
f tb (PET data) (TSPO [7]; derived from BPND, Eq. 4, basal ganglia): 0.81
Functioning (TSPO [8]): Yes

COC(=O)[C@H]1[C@@H](c2ccc(I)cc2)C[C@@H]2CC[C@H]1N2CCC[18F] [[^18 F]FP-CIT]
f tb (PET data) (DAT): 0.50

C=CCN1CCC[C@H]1CNC(=O)c1cc(CCC[18F])cc(OC)c1OC [[^18 F]Fallypride]
f tb (PET data) (D2; [9]): 0.96
f tb (PET data) (D2; [10]): 0.68

COc1ccccc1N1CCN(CCN(C(=O)c2ccc([18F])cc2)c2ccccn2)CC1 [[^18 F]MPPF]
f tb (PET data) (5HT1a): 0.62
